In all, about 580,000 compounds went through this assay and about 6,100 (1.1%) were called active. The inconclusive results got no clear call from the source; some entries with a clear call stand among them for comparison. The call rests on the fitted dose curve; in most records, active means well fitted inhibition curve with a large enough effect; inconclusive means small, poorly fitted or top-dose-only effect, or another doubt; inactive means no such curve, though single readings can be large or run the other way. A potency beside an inconclusive call is a rough fit, not a confirmed value.
Target: Polyunsaturated fatty acid lipoxygenase ALOX12 (Homo sapiens) (UniProt P18054)
Test: Primary qHTS assay for inhibitors of human arachidonate 12S-lipoxygenase (ALOX12): Round 2
Settings: purified 12hLO, xylenol orange hydroperoxide absorbance; series mostly up to 108 µM
Procedure, shortened: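 Purified human 12hLO (150 nM final) in 25 mM Hepes, 0.01% Triton X-100, pH 7.0 was preincubated 15 min at room temperature with compound. Then 40 uM arachidonic acid was added, 30 min. Hydroperoxide was read by Fe-XO absorbance ratio 573/405 nm.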
Potency means the concentration at half of the fitted maximal effect.

Sequences of proteins named here, by UniProt entry; tags and fusion partners are left off. A change or cut given only in a name is not applied to a line headed by its entry.
UniProt P18054: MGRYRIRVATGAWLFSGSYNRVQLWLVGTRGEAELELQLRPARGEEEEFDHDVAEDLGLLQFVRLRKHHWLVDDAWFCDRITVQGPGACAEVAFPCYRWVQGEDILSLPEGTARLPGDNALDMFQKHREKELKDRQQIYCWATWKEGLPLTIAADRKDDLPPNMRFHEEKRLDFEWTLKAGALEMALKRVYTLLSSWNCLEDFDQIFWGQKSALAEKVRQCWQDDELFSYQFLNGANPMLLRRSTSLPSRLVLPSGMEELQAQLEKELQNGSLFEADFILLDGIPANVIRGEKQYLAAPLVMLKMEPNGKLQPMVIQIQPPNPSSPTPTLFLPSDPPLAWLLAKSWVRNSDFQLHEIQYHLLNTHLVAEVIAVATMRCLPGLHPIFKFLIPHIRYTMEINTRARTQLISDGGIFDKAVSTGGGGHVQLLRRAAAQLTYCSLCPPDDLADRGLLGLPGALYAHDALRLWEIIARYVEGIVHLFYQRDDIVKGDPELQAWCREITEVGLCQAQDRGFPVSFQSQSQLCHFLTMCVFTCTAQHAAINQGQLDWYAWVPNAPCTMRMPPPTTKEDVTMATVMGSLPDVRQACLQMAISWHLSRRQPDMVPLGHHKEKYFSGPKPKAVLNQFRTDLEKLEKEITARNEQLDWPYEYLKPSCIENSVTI

| Structure (SMILES) | Potency |
| --- | --- |
| CCCCn1c(=O)[nH]c(=O)c2c1nc(CCc1ccccc1)c(=O)n2CCCC | inconclusive: 39.8 µM [inhibitor, partial curve, poor fit] |
| COCCN1C(=O)[C@H]2CN(Cc3ccccc3Cl)C[C@H]2C1=O | inactive |
| COC(=O)[C@@H]1Cc2ncn(Cc3ccc(Cl)cc3)c2CN1CCCc1ccccc1 | inactive |
| Cc1ccc(C)c(-n2sc3ccc(F)cc3c2=O)c1 | active: 1.58 µM |
| O=C(NCc1cccc(F)c1)C1Cn2cccc2C(=O)N1Cc1cccnc1 (stereo not drawn) | inactive |
| COc1ccc2cc(CNC(=O)c3cc4ccc(OC)cc4nc3C)ccc2c1 | inconclusive: 50.1 µM [inhibitor, partial curve, poor fit] |
| Cc1cc(=O)oc2cc(OCC(=O)NCCC3CCN(Cc4ccccc4)CC3)ccc12 | inactive |
| O=C(CNC(=O)c1ccco1)OCC(=O)c1ccc(Cl)cc1 | inactive |
| COC(=O)c1cc(NC(=O)CCS(=O)(=O)c2cc(Br)cc3c2N(C(=O)C2CC2)CC3)cc(C(=O)OC)c1 | inconclusive: 0.224 µM [inhibitor, full curve, poor fit] |
| O=C(CSc1n[nH]c(=O)n1C1CC1)Nc1ccc(Cl)cc1Cl | inconclusive: 79.4 µM [inhibitor, single point] |
| CCCN1C(=O)NC(c2ccc(Br)s2)C(C(=O)OC)=C1C (stereo not drawn) | inactive |
| CC(=O)Nc1ccc(-c2c(-c3cccc(C)c3)nn(-c3ccc(F)cc3)c2OC(C)=O)cc1 | inconclusive: 10 µM [inhibitor, full curve] |
| Cc1cc(C)cc(OCC(=O)NCC2CCCO2)c1 (stereo not drawn) | inconclusive: 6.31 µM [inhibitor, full curve, poor fit] |
| Cc1cc(C)c(S(=O)(=O)NCc2cccs2)cc1C | inconclusive: 112 µM [inhibitor, single point] |
| COc1ccc(-n2nc(C(=O)O)cc2-c2ccccc2)cc1 | inconclusive: 25.1 µM [inhibitor, single point] |
| COc1ccc(OC)c(-n2c(-c3ccc(O)cc3O)n[nH]c2=S)c1 | inconclusive: 28.2 µM [inhibitor, single point] |
| COc1ccccc1C(=O)NNC(=S)Nc1ccccc1 | inactive |
| Cc1ccc(-c2nc3cc(C)c(Br)c(C)n3c2CC2CCCCC2)cc1 | inconclusive: 112 µM [inhibitor, single point] |
| Cc1ccc(S(=O)(=O)NC2CC3CCC2C3)cc1 (stereo not drawn) | inconclusive: 15.8 µM [inhibitor, partial curve, poor fit] |
| C=CCOc1ccc(C2/C(=C(\O)c3ccc4c(c3)OCCO4)C(=O)C(=O)N2CCCN2CCOCC2)cc1 (stereo not drawn) | inconclusive: 35.5 µM [inhibitor, single point] |
| Cc1ccccc1OCC1Cn2c(nc3c2c(=O)[nH]c(=O)n3C)O1 (stereo not drawn) | inconclusive: 178 µM [inhibitor, partial curve, poor fit] |
| CC(C)(C)c1ccc(OCC(O)CN2CCc3ccccc3C2)cc1 (stereo not drawn) | inconclusive: 89.1 µM [inhibitor, single point] |

Grouped by structure, those above containing a thiophene ring, fused or not (2)

| Structure (SMILES) | Potency |
| --- | --- |
| CCCN1C(=O)NC(c2ccc(Br)s2)C(C(=O)OC)=C1C (stereo not drawn) | inactive |
| Cc1cc(C)c(S(=O)(=O)NCc2cccs2)cc1C | inconclusive: 112 µM [inhibitor, single point] |

(next part)

| Structure (SMILES) | Potency |
| --- | --- |
| O=C(O)CNC/C=C/c1ccccc1 | inactive |
| CC(C)C1CCC(C)C(C2(C#N)C(N)=C(C=O)CC2(C#N)C#N)C1=O (stereo not drawn) | inconclusive: 44.7 µM [inhibitor, partial curve, poor fit] |
| COc1cc(Nc2nc(-c3ccccc3)c3cc(C)ccc3n2)cc(OC)c1OC | inconclusive: 50.1 µM [inhibitor, partial curve, poor fit] |
| CCN(CC)CC[C@H]1CN(C(=O)Nc2ccccc2)CC[C@H]1CC(=O)O | inconclusive: 20 µM [inhibitor, full curve, poor fit] |
| COc1cc2oc(-c3ccc(O)cc3)cc(=O)c2c(O)c1OC | inconclusive: 31.6 µM [inhibitor, partial curve, poor fit] |
| Cc1cccc(C(=O)N2CCC3(CC2)N=C(c2cccc(Br)c2)NO3)c1 | inconclusive: 39.8 µM [inhibitor, partial curve] |
| Cc1cc(C(F)(F)F)nn1Cc1n[nH]c(=S)n1-c1ccc(Cl)cc1 | inconclusive: 79.4 µM [inhibitor, partial curve, poor fit] |
| Cc1c(C(=O)N2CCN(c3ccccc3)CC2)oc2c1C(=O)CCC2 | inconclusive: 44.7 µM [inhibitor, partial curve, poor fit] |
| CC1CC/C(=N/Nc2ccccc2)C(=O)N1 (stereo not drawn) | inconclusive: 39.8 µM [inhibitor, partial curve, poor fit] |
| O=C1c2cc(N3CCOCC3)nc(-c3ccccc3)c2CN1Cc1ccccc1 | inactive |
| Cc1cc(/C=C2\SC(=O)N(C)C2=O)c(C)n1-c1ccc(O)cc1 | inconclusive: 28.2 µM [inhibitor, single point] |
| CCNC(=S)NCc1ccc(Cl)cc1 | inactive |
| O=C(N/N=C/c1ccc(Cl)cc1)C1CC1 | inactive |
| CS(=O)(=O)c1ccccc1-c1csc(N2CCC(C(N)=O)CC2)n1 | inconclusive: 17.8 µM [inhibitor, partial curve] |
| O=c1c(C(c2ccc(O)cc2)c2c(O)nc3n(c2=O)CCCS3)c(O)nc2n1CCCS2 | inconclusive: 79.4 µM [inhibitor, partial curve, poor fit] |
| C[C@@H]([C@H](O)c1ccc(O)cc1)N1CCC(Cc2ccccc2)CC1 | inconclusive: 1 µM [inhibitor, full curve, poor fit] |
| CCCc1c(C)nc2ccc(OC)cc2c1SCCC(=O)O | inactive |
| O=C(COC(=O)C1(c2ccc(Cl)cc2)CCCC1)c1ccc(Br)cc1 | inconclusive: 141 µM [inhibitor, partial curve, poor fit] |
| C=C(C1=CCN(S(=O)C(C)(C)C)[C@@H]1CCO)c1ccccc1 (stereo partly drawn) | inconclusive: 100 µM [inhibitor, single point] |
| CCCCOC(=O)C(C)c1c(C)[nH]c(=S)[nH]c1=O (stereo not drawn) | inconclusive: 31.6 µM [inhibitor, single point] |
| CCOC(=O)C1=C(c2ccccc2)N=c2s/c(=C\c3ccco3)c(=O)n2C1c1cccs1 (stereo not drawn) | inconclusive: 7.94 µM [inhibitor, full curve, poor fit] |

From PubChem BioAssay AID1671190 (National Center for Advancing Translational Sciences (NCATS), 2021)
